# Patent US8470766B2, “Protein kinase C therapy for the treatment of acute lung injury” (The Children's Hospital of Philadelphia, priority 2006, dated 2013)
# For at least one compound, name, drawing or mass did not settle the structure.
# How the values were obtained:
# Format in all cases: cell-based, human
# [1] = test system: p38 MAPK; assay: TNF-mediated p38 MAPK phosphorylation in neutrophils (Western blot); details: LY294002 10 μM for 20 min before TNF
# [2] = test system: ERK2; assay: TNF-mediated ERK2 phosphorylation in neutrophils (Western blot); details: LY294002 10 μM for 20 min before TNF
# [3] = test system: PDK1; assay: TNF-mediated PDK1 phosphorylation in adherent neutrophils; details: LY 294002 10 uM 20 min prior to TNF
smiles,measurement,setting,value
O=c1cc(N2CCOCC2)oc2c(-c3ccccc3)cccc12 [LY294002],TNF-mediated activation of p38 MAPK,[1],PI 3-kinase independent
same,TNF-mediated activation of ERK2,[2],PI 3-kinase independent
same,TNF mediated activation of PDK1,[3],inhibited
